Measured values: publication PMC10049986
Results are given in words; binding and its absence hold for the method and conditions named. In cells and extracts the contact can be indirect. Here binding means that the protein was enriched with, or labelled near, the bait; the list need not be complete. Where a sequence is shown, tags or fusion partners need not be part of it.

Sequences of proteins named here, by UniProt entry; tags and fusion partners are left off.
UniProt Q9M2Z2: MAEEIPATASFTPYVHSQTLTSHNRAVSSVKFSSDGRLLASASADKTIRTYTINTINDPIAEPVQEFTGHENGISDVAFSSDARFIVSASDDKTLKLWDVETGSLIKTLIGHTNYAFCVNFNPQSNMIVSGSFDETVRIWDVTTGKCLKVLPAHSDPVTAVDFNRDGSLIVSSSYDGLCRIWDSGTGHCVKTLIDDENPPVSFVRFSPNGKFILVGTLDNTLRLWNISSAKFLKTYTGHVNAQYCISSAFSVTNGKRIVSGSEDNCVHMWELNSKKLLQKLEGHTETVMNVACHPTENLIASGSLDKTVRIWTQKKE

Columns and labels:
Test in all cases: affinity purification with mass spectrometry; native and formaldehyde cross-linked IP-MS from floral buds of FLAG-TRB1, 2 and 3 lines with Col-0 as control; anti-FLAG M2 magnetic beads, 4 °C, 2 h; eluted with 3X FLAG peptides; results of the two formats are told together
[1] = molecular target: T1, pTRB:TRB-FLAG TRB2 (Telomere Repeat Binding factor 2 with 3xFLAG) (Arabidopsis thaliana) (UniProt Q9FJW5)
T1 sequence: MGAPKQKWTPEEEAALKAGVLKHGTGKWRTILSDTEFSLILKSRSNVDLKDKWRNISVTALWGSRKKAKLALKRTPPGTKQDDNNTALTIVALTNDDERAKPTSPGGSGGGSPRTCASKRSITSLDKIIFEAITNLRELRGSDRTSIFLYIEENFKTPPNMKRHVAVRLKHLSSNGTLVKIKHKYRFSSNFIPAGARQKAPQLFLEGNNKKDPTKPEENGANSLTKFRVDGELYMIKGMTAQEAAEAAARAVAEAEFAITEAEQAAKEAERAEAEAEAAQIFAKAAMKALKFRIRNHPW

[2] = molecular target: T2, pTRB:TRB-FLAG TRB3 (Telomere Repeat Binding factor 3 with 3xFLAG) (Arabidopsis thaliana) (UniProt Q9M2X3)
T2 sequence: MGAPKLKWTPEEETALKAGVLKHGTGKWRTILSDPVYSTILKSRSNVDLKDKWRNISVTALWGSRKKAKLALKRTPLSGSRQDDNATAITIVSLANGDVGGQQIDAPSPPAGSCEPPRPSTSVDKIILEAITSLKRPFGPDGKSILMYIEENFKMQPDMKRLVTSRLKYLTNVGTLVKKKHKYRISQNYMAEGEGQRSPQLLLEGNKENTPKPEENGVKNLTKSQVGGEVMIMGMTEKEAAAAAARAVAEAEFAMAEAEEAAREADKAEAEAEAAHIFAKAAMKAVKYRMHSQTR

[3] = molecular target: T3, pTRB:TRB-FLAG TRB1 (Telomere Repeat Binding factor 1 with 3xFLAG) (Arabidopsis thaliana) (UniProt Q8VWK4)
T3 sequence: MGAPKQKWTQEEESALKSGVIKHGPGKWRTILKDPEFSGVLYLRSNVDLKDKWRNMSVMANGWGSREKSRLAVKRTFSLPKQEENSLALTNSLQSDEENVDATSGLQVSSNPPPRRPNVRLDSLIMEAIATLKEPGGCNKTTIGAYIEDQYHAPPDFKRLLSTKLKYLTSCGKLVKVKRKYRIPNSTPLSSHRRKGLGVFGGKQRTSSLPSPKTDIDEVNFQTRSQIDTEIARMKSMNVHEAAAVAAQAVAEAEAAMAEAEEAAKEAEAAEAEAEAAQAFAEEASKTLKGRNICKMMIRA

Measured: binding

WDR5A protein, endogenous (from UniProt Q9M2Z2 1-317)
binds: all assays above
